Results published in publication PMC6477179.
Results are given in words; binding and its absence hold for the method and conditions named. Binding seen in cells or lysates may run through a third protein. Some binding calls cover weakened binding; strength is not graded here. Where a sequence is shown, tags or fusion partners need not be part of it.

Biological target: T1, 9xmyc-Atg11 (S. cerevisiae) (UniProt Q12527)
T1 sequence: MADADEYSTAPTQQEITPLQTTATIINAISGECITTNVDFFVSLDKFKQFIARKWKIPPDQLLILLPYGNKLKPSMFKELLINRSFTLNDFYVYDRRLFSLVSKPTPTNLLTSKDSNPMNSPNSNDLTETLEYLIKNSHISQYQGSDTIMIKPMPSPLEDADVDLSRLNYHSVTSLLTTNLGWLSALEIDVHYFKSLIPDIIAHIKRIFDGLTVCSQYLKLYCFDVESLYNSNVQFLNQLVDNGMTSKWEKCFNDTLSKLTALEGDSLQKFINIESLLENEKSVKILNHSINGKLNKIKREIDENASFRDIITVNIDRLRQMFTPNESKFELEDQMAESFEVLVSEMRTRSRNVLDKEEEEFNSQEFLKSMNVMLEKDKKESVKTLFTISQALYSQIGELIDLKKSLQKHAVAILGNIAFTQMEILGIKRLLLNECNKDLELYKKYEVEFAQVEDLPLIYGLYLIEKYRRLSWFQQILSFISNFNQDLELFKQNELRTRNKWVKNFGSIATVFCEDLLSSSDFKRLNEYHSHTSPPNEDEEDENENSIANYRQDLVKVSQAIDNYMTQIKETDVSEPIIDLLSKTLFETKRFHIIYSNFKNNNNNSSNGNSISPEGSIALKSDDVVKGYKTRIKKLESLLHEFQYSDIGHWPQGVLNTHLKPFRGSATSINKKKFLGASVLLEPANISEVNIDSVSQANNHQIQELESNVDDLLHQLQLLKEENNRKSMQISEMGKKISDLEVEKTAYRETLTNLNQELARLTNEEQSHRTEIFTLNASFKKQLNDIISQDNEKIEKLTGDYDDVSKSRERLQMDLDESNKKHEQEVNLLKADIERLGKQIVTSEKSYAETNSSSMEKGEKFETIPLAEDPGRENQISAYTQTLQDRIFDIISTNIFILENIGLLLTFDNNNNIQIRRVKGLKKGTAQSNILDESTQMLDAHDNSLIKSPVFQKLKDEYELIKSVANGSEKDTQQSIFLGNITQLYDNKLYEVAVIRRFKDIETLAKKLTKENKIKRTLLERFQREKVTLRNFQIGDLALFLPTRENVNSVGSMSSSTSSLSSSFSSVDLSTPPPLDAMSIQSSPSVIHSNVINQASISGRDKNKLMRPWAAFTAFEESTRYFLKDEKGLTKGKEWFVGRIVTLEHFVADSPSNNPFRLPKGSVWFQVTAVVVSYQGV
Assay: co-IP; S. cerevisiae Atg11Δ with pRS315-9myc-Atg11 plasmids, grown in YPD; anti-myc Dynabeads 1 h at 4°C in RLB+ buffer; western blot with anti-myc and anti-Atg19

B1: Atg19 (endogenous, S. cerevisiae) (protein, UniProt P35193 1-415)
chain: MNNSKTNQQMNTSMGYPLTVYDECNKFQLIVPTLDANIMLWCIGQLSLLNDSNGCKHLFWQPNDKSNVRILLNNYDYGHLFKYLQCQRKCSVYIGEGTLKKYNLTISTSFDNFLDLTPSEEKESLCREDAHEDPVSPKAGSEEEISPNSTSNVVVSRECLDNFMKQLLKLEESLNKLELEQKVTNKEPNHRISGTIDIPEDRSELVNFFTELKTVKQLEDVFQRYHDYERLSQECDSKTEIASDHSKKETKIEVEPPNERSLQITMNQRDNSLYFQLFNNTNSVLAGNCKLKFTDAGDKPTTQIIDMGPHEIGIKEYKEYRYFPYALDLEAGSTIEIENQYGEVIFLGKYGSSPMINLRPPSRLSAESLQASQEPFYSFQIDTLPELDDSSIISTSISLSYDGDDNEKALTWEEL
binding: binds
